Results are given in words; binding and its absence hold for the method and conditions named. In cells and extracts the contact can be indirect. Some entries that bind do so weakly or less than the wild type.
B1: caspase-8, O89110 1-480 (protein)
chain: MDFQSCLYAIAEELGSEDLAALKFLCLDYIPHKKQETIEDAQKLFLRLREKGMLEEGNLSFLKELLFHISRWDLLVNFLDCNREEMVRELRDPDNAQISPYRVMLFKLSEEVSELELRSFKFLLNNEIPKCKLEDDLSLLEIFVEMEKRTMLAENNLETLKSICDQVNKSLLGKIEDYERSSTERRMSLEGREELPPSVLDEMSLKMAELCDSPREQDSESRTSDKVYQMKNKPRGYCLIINNHDFSKAREDITQLRKMKDRKGTDCDKEALSKTFKELHFEIVSYDDCTANEIHEILEGYQSADHKNKDCFICCILSHGDKGVVYGTDGKEASIYDLTSYFTGSKCPSLSGKPKIFFIQACQGSNFQKGVPDEAGFEQQNHTLEVDSSSHKNYIPDEADFLLGMATVKNCVSYRDPVNGTWYIQSLCQSLRERCPQGDDILSILTGVNYDVSNKDDRRNKGKQMPQPTFTLRKKLFFPP
B2: caspase-1 (protein, UniProt P29452 1-402)
chain: MADKILRAKRKQFINSVSIGTINGLLDELLEKRVLNQEEMDKIKLANITAMDKARDLCDHVSKKGPQASQIFITYICNEDCYLAGILELQSAPSAETFVATEDSKGGHPSSSETKEEQNKEDGTFPGLTGTLKFCPLEKAQKLWKENPSEIYPIMNTTTRTRLALIICNTEFQHLSPRVGAQVDLREMKLLLEDLGYTVKVKENLTALEMVKEVKEFAACPEHKTSDSTFLVFMSHGIQEGICGTTYSNEVSDILKVDTIFQMMNTLKCPSLKDKPKVIIIQACRGEKQGVVLLKDSVRDSEEDFLTDAIFEDDGIKKAHIEKDFIAFCSSTPDNVSWRHPVRGSLFIESLIKHMKEYAWSCDLEDIFRKVRFSFEQPEFRLQMPTADRVTLTKRFYLFPGH

How the values were obtained:
[1] = target: T1, apoptosis-associated speck-like protein containing a caspase recruitment domain (ASC) (mouse (endogenous in brain cortex of C57BL/6 mice)), Q9EPB4; test: co-IP; 2 ug anti-ASC antibody added to 100 uL brain cortical lysate of young and aged mice, Protein G MicroBeads, u Column, rinsed with lysis buffer and RIPA buffer, eluted with hot Laemmli buffer, immunoblot; details: remark: other sources report otherwise
T1 chain: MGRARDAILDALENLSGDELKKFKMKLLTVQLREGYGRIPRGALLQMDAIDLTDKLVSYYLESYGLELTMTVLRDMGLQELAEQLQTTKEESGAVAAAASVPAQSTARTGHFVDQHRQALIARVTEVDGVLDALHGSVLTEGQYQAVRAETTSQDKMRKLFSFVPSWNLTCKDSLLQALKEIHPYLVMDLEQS

[2] = target: T2, apoptosis-associated speck-like protein containing a caspase recruitment domain (ASC) (mouse (endogenous in brain cortex of C57BL/6 mice)) (UniProt Q9EPB4); test: as above
T2 sequence: T1 chain

| Binder | binding [1] | binding [2] |
| --- | --- | --- |
| B1 | binds |  |
| B2 |  | binds |
